Assay [1] concerns the target UAF-2::HA (C. elegans UAF-2, wild type) (C. elegans) (UniProt Q9U2U0). Briefly: pull-down; lysate (NP-40 buffer) of HEK293T cells expressing UAF-2::HA incubated overnight at 4°C with purified His::UAF-1::FLAG and Protein A/G magnetic beads carrying anti-HA antibody; washed 5 times with 1 x PBST; western blot; only the binder purified.
Assay [2] addresses T1, His::UAF-1(T180I)::FLAG (C. elegans UAF-1 T180I) (C. elegans) (UniProt P90978).
T1 sequence: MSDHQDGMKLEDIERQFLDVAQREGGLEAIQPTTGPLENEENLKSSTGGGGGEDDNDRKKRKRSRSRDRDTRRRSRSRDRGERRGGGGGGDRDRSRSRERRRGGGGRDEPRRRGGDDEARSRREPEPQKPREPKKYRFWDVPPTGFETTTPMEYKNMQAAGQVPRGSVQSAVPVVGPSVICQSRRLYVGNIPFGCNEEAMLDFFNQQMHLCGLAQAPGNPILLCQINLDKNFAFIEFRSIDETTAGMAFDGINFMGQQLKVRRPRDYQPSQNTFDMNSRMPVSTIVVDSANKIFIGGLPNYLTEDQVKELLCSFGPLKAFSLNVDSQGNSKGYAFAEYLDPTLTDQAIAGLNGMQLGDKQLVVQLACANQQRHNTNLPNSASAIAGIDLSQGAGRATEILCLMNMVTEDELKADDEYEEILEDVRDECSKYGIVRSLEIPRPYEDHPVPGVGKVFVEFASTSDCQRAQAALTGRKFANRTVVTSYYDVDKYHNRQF
The assay is described as follows: pull-down; lysate (NP-40 buffer) of HEK293T cells expressing UAF-2::HA incubated overnight at 4°C with purified His::UAF-1::FLAG and Protein A/G magnetic beads carrying anti-FLAG antibody; washed 5 times with 1 x PBST; western blot; only the target purified. For orientation: Immunoblotting shows a protein as a band on a membrane.

Chains of the proteins cited; added tags and fusions are not shown. Lines headed by an entry give the natural chain unless they say otherwise; changes in a name come on top.
UniProt Q9U2U0: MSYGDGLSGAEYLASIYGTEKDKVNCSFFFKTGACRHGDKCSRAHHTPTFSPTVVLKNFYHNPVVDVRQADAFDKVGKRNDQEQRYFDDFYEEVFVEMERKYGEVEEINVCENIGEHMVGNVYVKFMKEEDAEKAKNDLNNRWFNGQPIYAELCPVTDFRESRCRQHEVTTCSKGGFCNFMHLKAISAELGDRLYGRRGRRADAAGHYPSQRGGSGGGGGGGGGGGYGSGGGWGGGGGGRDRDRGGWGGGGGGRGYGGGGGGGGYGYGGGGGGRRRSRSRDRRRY

The target in assay [3] is His::UAF-1::FLAG (C. elegans UAF-1, wild type) (C. elegans) (UniProt P90978). Described as above.

No constants are given. Whether binding was seen depends on the method and setting. Binding seen in cells or lysates may run through a third protein. A result given as binding can be weak or reduced; the word gives no strength. For part of these data: Tags and fused reporters may be left off the sequences shown.

For the substance “His::UAF-1::FLAG (C. elegans UAF-1, wild type) (from UniProt P90978-1 1-496)”, the binding entry in assay [1] is listed as “binds”.
“UAF-2::HA (C. elegans UAF-2, wild type) (from UniProt Q9U2U0)”: the binding entry in assay [2] and in assay [3] was “binds” throughout.

The record behind these values is PMC12709185.
